In the assay the test system is BDF1 mice, B16 melanoma ip, median survival T/C. Kind of assay: NCI In Vivo Anticancer Drug Screen. Data for tumor model B16 Melanoma (intraperitoneal) in B6D2F1 (BDF1) mice. Conditions: T/C endpoint: median survival time, higher T/C = longer survival. A digest of the protocol:
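Compounds were tested in mice carrying transplantable tumors. Survival or tumor size was recorded, and each value is the treated-group measurement (T) divided by that of the vehicle-treated control group (C).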

[1] abbreviates: dose: 100.0 mg/kg/injection, schedule: Q01DX009 (ip), vehicle: saline with Tween-80.
The mark [2] stands for this setting: dose: 200.0 mg/kg/injection, schedule: Q01DX009 (ip), vehicle: saline with Tween-80.
Where [3] appears, read: dose: 200.0 mg/kg/injection, schedule: Q01DX009 (ip), vehicle: Klucel (hydroxypropylcellulose) (HPC).
Setting [4] is: dose: 400.0 mg/kg/injection, schedule: Q01DX009 (ip), vehicle: Klucel (hydroxypropylcellulose) (HPC).
[5] abbreviates: dose: 100.0 mg/kg/injection, schedule: Q01DX009 (ip), vehicle: Klucel (hydroxypropylcellulose) (HPC).
[6] abbreviates: dose: 400.0 mg/kg/injection, schedule: Q01DX009 (ip), vehicle: saline with Tween-80.
Setting [7] is: dose: 25.0 mg/kg/injection, schedule: Q01DX009 (ip), vehicle: Klucel (hydroxypropylcellulose) (HPC).
The mark [8] stands for this setting: dose: 50.0 mg/kg/injection, schedule: Q01DX009 (ip), vehicle: Klucel (hydroxypropylcellulose) (HPC).
Where [9] appears, read: dose: 100.0 mg/kg/injection, schedule: Q01DX009 (ip), vehicle: saline.
[10] abbreviates: dose: 12.5 mg/kg/injection, schedule: Q01DX009 (ip), vehicle: saline.
Where [11] appears, read: dose: 25.0 mg/kg/injection, schedule: Q01DX009 (ip), vehicle: saline with Tween-80.
Where [12] appears, read: dose: 25.0 mg/kg/injection, schedule: Q01DX009 (ip), vehicle: saline.
The mark [13] stands for this setting: dose: 50.0 mg/kg/injection, schedule: Q01DX009 (ip), vehicle: saline with Tween-80.

Structures are written as SMILES. The list is a part of this screen's results and no random one: it is rich in T/C values a quarter to a half above the control, in often repeated tests (any T/C) and in doses without a T/C. Further doses and runs are listed elsewhere. T/C: endpoint of the treated group in % of that of the vehicle group. Some doses have a count of surviving animals in place of a T/C: the source files T/C as zero there, which appears to mark a toxic dose or a test without result, not a measured value. Some survivor counts are full or nearly so, which does not show that the dose was tolerated: survival well below the control is almost never listed, so the zero probably covers shortened survival too. Survivors were counted at the toxicity check, usually on the fifth day, unless a day is given; later deaths do not show. Schedules are NCI's codes, taken here to give the interval after Q, in days (D) or hours (H), and the number of doses after X. Some entries hold several experiments; their values stand side by side, smallest first. Some molecules as drawn cover several salts, stereoisomers or complexes of the source; a dose is that of the sample tested. Marks such as (2×) say how often a value occurs here. For survival time, this PubChem deposit counts one and a half times the control or more as active, and values a quarter to a half above the control carry no call in these data; other NCI protocols may use other cut-offs. Some T/C values carry the count of animals alive at the toxicity check (mostly the fifth day); where none is given, no animal had died by that day.

Regarding `Brc1ccc(-c2csc(Nc3nc(-c4ccc(Br)cc4)cs3)n2)cc1`, the survivor count is listed as 10 of 10 under setting [1]; 10 of 10 under setting [2]; 10 of 10 (dose: 400.0 mg/kg/injection, schedule: Q04DX003 (ip), vehicle: saline with Tween-80).
Consider `Cc1ccc(NC(=O)COc2ccc(Cl)cc2Cl)c([N+](=O)[O-])c1`, for which the survivor count is 10 of 10 under setting [3] and 9 of 10 under setting [4].
Regarding `COc1ccc(N2C(=O)CC(Sc3ccccc3N)C2=O)cc1` (stereo not given), the survivor count was 10 of 10 under setting [5], 9 of 10 under setting [3] and 7 of 10 under setting [4].
`COC(=O)C(F)C(Br)C(=O)OC` (stereo not given): the survivor count under setting [1] was 6 of 10.
Turning to `OCC1OCCO1`, the survivor count under setting [6] is 10 of 10.
Take `COc1ccc2nc3ccccc3c(NCCNCCO)c2c1`: for the setting “dose: 5.0 mg/kg/injection, schedule: Q01DX009 (ip), vehicle: saline”, the T/C was 125 % of control. For the same molecule, the survivor count (dose: 20.0 mg/kg/injection, schedule: Q01DX009 (ip), vehicle: saline) is listed as 10 of 10.
On to `COc1cc(C=Nc2ccc(-c3nc(Cc4ccccc4)sc3C)cc2)ccc1N(CCCl)CCCl`, for which the T/C under setting [7] is 134 % of control. Besides, the survivor count was 9 of 10 under setting [8]; 9 of 10 and 10 of 10 under setting [5].
Regarding `O=C(O)CCC1CCCCC1=O` (stereo not given), the T/C under setting [5] was 132 % of control.
With `O=c1ccc2ccccc2o1`, the survivor count (dose: 300.0 mg/kg/injection, schedule: Q01DX009 (ip), vehicle: Klucel (hydroxypropylcellulose) (HPC)) is given as 1 of 10.
`CN(CCN(C)Cc1ccccc1)Cc1ccccc1`: the survivor count under setting [9] is recorded as 5 of 10.
With `CC[C@]1(O)C[C@H](OC2CC(N(C)C)C(OC3CC(O)C(O)C(C)O3)C(C)O2)c2c(cc3c(c2O)C(=O)c2c(O)ccc(O)c2C3=O)[C@H]1C(=O)OC` (stereo not given in full), the T/C (dose: 0.5 mg/kg/injection, schedule: Q01DX009 (ip), vehicle: saline with Tween-80) was 138 % of control; the T/C (dose: 0.8 mg/kg/injection, schedule: Q01DX009 (ip), vehicle: carboxymethylcellulose (CMC)) is 140 % of control; the T/C (dose: 1.6 mg/kg/injection, schedule: Q01DX009 (ip), vehicle: carboxymethylcellulose (CMC)) was 149 % of control.
In the case of `COC(=O)C1=CO[C@@H](C)[C@@H]2Cn3ccc4c5ccccc5nc-4c3C[C@H]12`, the survivor count is 2 of 10 under setting [1] and 0 of 10 under setting [2].
For the molecule `O=C1C(=O)c2ccccc2C(O)=C1CC=C(Cl)Cl`, the T/C runs as follows: (dose: 12.5 mg/kg/injection, schedule: Q01DX009 (ip), vehicle: Klucel (hydroxypropylcellulose) (HPC)) 87, 94 [5 of 6 alive], 96, 97 (4×), 100, 102 (3×), 103, 105 (2×), 106, 112, 113 % of control; (dose: 12.5 mg/kg/injection, schedule: Q01DX009 (ip), vehicle: saline with Tween-80, evaluated on day 45) 94, 97, 105 % of control; (dose: 12.5 mg/kg/injection, schedule: Q01DX009 (ip), vehicle: saline with Tween-80, evaluated on day 60) 96, 96 [5 of 6 alive], 97, 100 % of control (2×); under setting [10], 100, 102, 102 [4 of 6 alive], 103, 111 % of control; under setting [7], 88, 89 (2×), 94 (2×), 96, 97, 100 (2×), 102, 103, 104 [5 of 6 alive], 105, 106, 111, 118, 120 % of control; (dose: 25.0 mg/kg/injection, schedule: Q01DX009 (ip), vehicle: saline with Tween-80, evaluated on day 45) 91 [5 of 6 alive] and 100 % of control (2×). Moreover, the T/C is 96 [5 of 6 alive], 100 (2×), 106 % of control (dose: 25.0 mg/kg/injection, schedule: Q01DX009 (ip), vehicle: saline with Tween-80, evaluated on day 60); 91, 93, 94, 96, 111 % of control under setting [12]; 89, 94 (2×), 95, 97 (2×), 100, 103 (2×), 108, 109, 110 (2×), 112, 115, 116, 120 % of control under setting [8]; 100 and 105 % of control (dose: 50.0 mg/kg/injection, schedule: Q01DX009 (ip), vehicle: saline with Tween-80, evaluated on day 45); 90, 90 [5 of 6 alive], 93 [5 of 6 alive], 103, 120 % of control (dose: 50.0 mg/kg/injection, schedule: Q01DX009 (ip), vehicle: saline with Tween-80, evaluated on day 60); 93 (2×), 95 [5 of 6 alive], 97 [5 of 6 alive], 105 % of control (dose: 50.0 mg/kg/injection, schedule: Q01DX009 (ip), vehicle: saline). The T/C (dose: 50.0 mg/kg/injection, schedule: Q01DX009 (oral), vehicle: water) was 125 % of control; the T/C under setting [5] was 94 [4 of 6 alive], 100, 102 (2×), 108, 109 [4 of 6 alive], 112 % of control; the T/C (dose: 100.0 mg/kg/injection, schedule: Q01DX009 (ip), vehicle: saline with Tween-80, evaluated on day 45) is 107 % of control; the T/C (dose: 100.0 mg/kg/injection, schedule: Q01DX009 (ip), vehicle: saline with Tween-80, evaluated on day 60) was 106 % of control [5 of 6 alive]; the T/C under setting [9] is 89 [4 of 6 alive], 94, 100 % of control. The survivor count was 6 of 6 under setting [11]; 3 of 6 under setting [13]; 0 of 6, 3 of 6, 4 of 6, 5 of 6, 6 of 6 under setting [5]; 2 of 6, 3 of 6 (2×), 4 of 6, 6 of 6 under setting [1]; 0 of 6, 3 of 6, 6 of 6 under setting [9]; 0 of 6 (dose: 100.0 mg/kg/injection, schedule: Q01DX009 (ip), vehicle: water). Also, the survivor count runs as follows: (dose: 200.0 mg/kg/injection, schedule: Q01DX009 (oral), vehicle: saline) 5 of 6; (dose: 400.0 mg/kg/injection, schedule: Q01DX009 (oral), vehicle: saline) 0 of 6; (dose: 400.0 mg/kg/injection, schedule: Q01DX009 (oral), vehicle: water) 0 of 6.
For `CN(C)CCOCCOC(=O)N1c2ccccc2Sc2ccccc21`, the survivor count under setting [9] is 8 of 10.
Regarding `CCCCC(=O)N(c1ccc(Nc2c3ccccc3nc3cc([N+](=O)[O-])ccc23)cc1)S(C)(=O)=O`, the T/C reads like this: (dose: 7.5 mg/kg/injection, schedule: Q01DX009 (ip), vehicle: saline with Tween-80) 141 % of control; (dose: 25.0 mg/kg/injection, schedule: Q01DX001 (ip), vehicle: saline with Tween-80) 127 % of control; (dose: 50.0 mg/kg/injection, schedule: Q01DX001 (ip), vehicle: saline with Tween-80) 144 % of control. Also, the survivor count (dose: 30.0 mg/kg/injection, schedule: Q01DX009 (ip), vehicle: saline with Tween-80) is reported as 6 of 6 and the survivor count (dose: 100.0 mg/kg/injection, schedule: Q01DX001 (ip), vehicle: saline with Tween-80) is given as 4 of 6.
With `ClCC[Se](Cl)(Cl)c1ccccc1`, the survivor count is given as 7 of 10 (dose: 6.25 mg/kg/injection, schedule: Q01DX009 (ip), vehicle: saline); 3 of 10 under setting [10]; 4 of 10 under setting [12].
For `CC(=O)Nc1ccc(N=Nc2c(O)c(S(=O)(=O)O)cc3cc(S(=O)(=O)O)ccc23)cc1`, the survivor count is on record as 10 of 10 under setting [13] and 10 of 10 under setting [1].
For `Nc1ncnc(N)c1N=O`, the T/C (dose: 200.0 mg/kg/injection, schedule: Q01DX009 (ip), vehicle: saline) was 126 % of control.
As to `CC(C)(C)OC(=O)NC(CCCCNC(=O)OCc1ccccc1)C(=O)O` (stereo not given), the survivor count is recorded as 10 of 10 under setting [2] and 10 of 10 under setting [6].
Regarding `CC1=CC(O)C(O)C2(C)C1CC(=O)C13COC4OC(CC1C4=O)C(O)C32` (stereo not given), the survivor count (dose: 2.5 mg/kg/injection, schedule: Q01DX009 (ip), vehicle: saline with Tween-80) is on record as 10 of 10.
`COc1ccc(Cl)cc1NC(=O)Nc1ccccc1`: the survivor count is, setting by setting: under setting [5], 10 of 10; under setting [3], 10 of 10; under setting [4], 10 of 10.
With `Cc1ccc2c(c1)n([O-])c1cc(Cl)ccc1[n+]2=O`, the T/C runs as follows: under setting [11], 129 % of control; under setting [13], 146 % of control. Under setting [2], the survivor count is on record as 2 of 10.

The values are drawn from PubChem BioAssay AID192 (DTP/NCI, 2004).
